Test results from PubChem BioAssay AID2685 (National Center for Advancing Translational Sciences (NCATS), 2010).
Screen size: about 320,000 compounds; about 2,100 (0.66%) were called active. Inconclusive results, whose numbers are uncertain, are shown with a selection of clear calls. Calls follow the shape of the dose curve; as a rule, active = well fitted inhibition curve with a large enough effect in the signal ratio, with a control signal flat (not every such curve was filed as active); inconclusive = small, poorly fitted or top-dose-only effect, or effect the other way, or a change in a side signal; inactive = flat fitted curve, though single readings scatter; the % refers to the signal ratio. Where the call is inconclusive, the potency comes from a doubtful curve fit.

Assay: qHTS Assay for Lipid Storage Modulators in Drosophila S3 Cells
Conditions: BODIPY lipid droplet fluorescence, 18-24 h, cells fed with added oleic acid; lipid storage change, negative = inhibition: at 46.1 µM (top of the series) unless noted
How it was run: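 Laser-scanning cytometry quantifies lipid droplet accumulation (500–530 nm total intensity; droplet/cell object ratio) in oleic acid-fed (400 uM added) Drosophila S3 cells treated with a concentration series. 20 uM Triacsin C defined 100% inhibition.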
% is scaled to controls: 0 for no effect and ±100 for the full control effect; potency is read from the fitted curve at half-maximal effect.

Row | SMILES | lipid storage change, negative = inhibition | Potency
1 | O=C(/C=C/c1cn(-c2ccccc2)nc1-c1cccnc1)N1CCCCC1 | inconclusive: -29.4% [cytotoxic] | –
2 | CCOc1ccc(NC(=O)CSc2nc3c(c(=O)n2-c2ccccc2OC)SCC3)cc1 | inconclusive: 19.3% | –
3 | Cn1cncc1C#Cc1ccc2cc(C3(O)CCCCC3)oc(=O)c2c1 | inactive: 11.5% | –
4 | CC(/C=C/c1ccccc1)=N/NC(=O)c1cc([N+](=O)[O-])cc([N+](=O)[O-])c1 | inconclusive: -46.8% | –
5 | COc1ccc(CCNC(=O)c2cnc3scc(C)n3c2=O)cc1OC | inconclusive: -15% | –
6 | COC(=O)c1ccsc1NC(=O)CCS(=O)(=O)c1ccccc1 | – | inconclusive: 0.0291 µM [falling, full curve, poor fit]
7 | Cc1cc(C)c2nc3sc(C(=O)N4CCOCC4)c(N)c3cc2c1 | inconclusive: -66.6% | –
8 | COc1cc(CNCCO)ccc1OCC(=O)Nc1ccc(Br)cc1 | inconclusive: 15.4% | –
9 | CCOc1ccc(NC(=O)CSCC(=O)O)cc1 | inconclusive: -30.2% | –
10 | Cc1cccc(/C=N/NC(=O)c2ccncc2)n1 | – | inconclusive: 0.0073 µM [falling, full curve]
11 | CCc1ccc(/C=C2/SC(=S)N(CCC(=O)NCCCN3CCOCC3)C2=O)cc1 | inconclusive: -13.1% | –
12 | COc1ccccc1NC(=O)Nc1nnc(CC(=O)Nc2ccccc2C)s1 | inconclusive: -2.09% | –
13 | CN(C(=O)CSc1nnc(-c2ccco2)n1N)C1CCCCC1 | inconclusive: 8.06% | –
14 | Cc1ccccc1CNC(=O)C(=O)NCC1CCCN1S(=O)(=O)c1cccs1 (configuration not stated) | – | inconclusive: 23.1 µM [falling, single point]
15 | CCOC(=O)CC(NC(=O)c1cc2ccccc2oc1=O)c1cccc([N+](=O)[O-])c1 (configuration not stated) | inactive: 11.5% | –
16 | O=c1[nH]c2ccc(S(=O)(=O)Nc3ccc(Cl)cc3)cc2o1 | inconclusive: 10.1% | –
17 | CCc1cc(=O)oc2c(C)c(OC(C)C(=O)NC3CC(C)(C)NC(C)(C)C3)ccc12 (configuration not stated) | inconclusive: 57.9% | –
18 | O=C(NCCc1ccccc1)Nc1ccc(Cl)cc1 | inconclusive: -17% | –
19 | O=C(COC(=O)/C=C/c1ccccc1)Nc1ccc(Cl)cn1 | inconclusive: 36.1% [at 0.0737 µM] | –
20 | CC(=O)C1=C(O)CC(C)(C)CC1=NCCc1nc2ccccc2[nH]1 | – | inconclusive: 29.1 µM [cytotoxic, single point]
21 | O=C(NNC(=S)NC(=O)c1ccccc1)c1ccc([N+](=O)[O-])cc1 | inconclusive: -3.79% | –
22 | O=C(COc1ccc(S(=O)(=O)NCc2ccccc2)cc1)NCc1cccnc1 | – | inconclusive: 5.8 µM [falling, full curve, poor fit]
23 | Cc1ccc(SCC(=O)NN2C(=O)c3ccccc3C2=O)cc1 | inconclusive: 7.09% | –
24 | Cc1cc(NS(=O)(=O)c2ccc(Nc3nc(-c4ccc(C)c(C)c4)cs3)cc2)no1 | – | inconclusive: 29.1 µM [activator, single point]
25 | Cn1c(=O)c2cc(S(=O)(=O)NC(C(=O)NCc3ccccn3)c3ccccc3)ccc2n(C)c1=O (configuration not stated) | inconclusive: -1.96% | –
26 | Cc1ccc(Cn2nc(C)c(NC(=O)c3noc4c3CCCCC4)c2C)cc1 | – | inconclusive: 13 µM [falling, partial curve, poor fit]

Among those listed so far, these contain two or more sulfur atoms.
Row | SMILES | lipid storage change, negative = inhibition | Potency
2 | CCOc1ccc(NC(=O)CSc2nc3c(c(=O)n2-c2ccccc2OC)SCC3)cc1 | inconclusive: 19.3% | –
6 | COC(=O)c1ccsc1NC(=O)CCS(=O)(=O)c1ccccc1 | – | inconclusive: 0.0291 µM [falling, full curve, poor fit]
11 | CCc1ccc(/C=C2/SC(=S)N(CCC(=O)NCCCN3CCOCC3)C2=O)cc1 | inconclusive: -13.1% | –
14 | Cc1ccccc1CNC(=O)C(=O)NCC1CCCN1S(=O)(=O)c1cccs1 (configuration not stated) | – | inconclusive: 23.1 µM [falling, single point]
24 | Cc1cc(NS(=O)(=O)c2ccc(Nc3nc(-c4ccc(C)c(C)c4)cs3)cc2)no1 | – | inconclusive: 29.1 µM [activator, single point]

The results go on.

Row | SMILES | lipid storage change, negative = inhibition | Potency
27 | CCOc1ccccc1N(CC(=O)NCC1CCCO1)C(=O)CCC(=O)Nc1ccccn1 (configuration not stated) | – | inconclusive: 0.206 µM [activator, full curve, poor fit]
28 | CNC(=O)N(C1=NCCCCC1)c1ccc(Br)cc1 | inactive: -2.09% | –
29 | Cc1cccc(OCC(=O)Nc2ccc3c(C)cc(=O)oc3c2)c1 | inconclusive: 22.7% | –
30 | CCOc1ccc(NC(=O)c2cc(S(=O)(=O)N3CCOCC3)cn2C)cc1 | inconclusive: -5.44% | –
31 | C=CCC(=O)NC1CC(C)(C)Cc2c1cnn2-c1ccccc1C (configuration not stated) | inconclusive: -32.6% | –
32 | Cc1ccc(CNC(=O)C2CCC(CNc3c(N4CCOCC4)c(=O)c3=O)CC2)cc1 (configuration not stated) | inconclusive: -9.36% [at 9.22 µM] | –
33 | COc1ccc(C/C(C)=N\NC(=O)c2cn(C)c3ccccc23)cc1OC | inconclusive: 14.1% | –
34 | CCCCCc1nnc(NC(=O)c2ccc(=O)n(C)n2)s1 | inconclusive: 26.9% | –
35 | O=C(C1CCCN(C2CC(=O)N(c3ccc(F)cc3)C2=O)C1)N1CCCC1 (configuration not stated) | – | inconclusive: 18.4 µM [activator, single point]
36 | Cc1c(-c2ccco2)[n+](=O)c2c(n1[O-])CCC2 | inconclusive: -23.7% | –
37 | Cc1nnc2c3ccccc3c(-c3ccc(O)cc3)nn12 | – | inconclusive: 6.51 µM [rising, partial curve]
38 | COc1ccc(N2C(=O)CCC(C(=O)N(C)C3CCCCC3)C2c2ccc(OC)c(OC)c2)cc1 (configuration not stated) | inconclusive: 14.8% | –
39 | COC(=O)C1=C(C)N(c2ccc(Cl)cc2)/C(=C/c2ccc(O)cc2)C1=O | inconclusive: -11.2% | –
40 | NCCc1c(-c2ccccc2)n(-c2ccccc2)c2ccccc12 | inconclusive: -17.1% | –
41 | Nc1nnc(SCC(=O)NNC(=O)c2ccc(Cl)cc2)s1 | inconclusive: -1.81% | –
42 | Cc1[nH]c2ccccc2c1C(=O)CN1CCCCC1C (configuration not stated) | inconclusive: 45% | –
43 | O=C(CNC(=O)c1ccco1)NCC(=O)OCc1ccc(C(=O)Oc2ccc(Cl)cc2)cc1 | inconclusive: 4.73% | –
44 | CCC(=O)Nc1ccc(C(=O)NNC(=O)C2CCCCC2)cc1 | – | inconclusive: 23.1 µM [activator, single point]
45 | O=C(CN1C(=O)NC2(CCCCCCC2)C1=O)N1CCN(C(=O)c2ccco2)CC1 | inconclusive: -42.2% | –
46 | O=C(O)CCc1ccc(-c2cccs2)n1NC(=O)c1ccc(Cl)cc1Cl | inconclusive: -1.88% | –
47 | CCOC(=O)C(Cc1cc(C(C)=O)ccc1OC(C)C)C(=O)OCC | inconclusive: -2.37% | –
48 | CCN1C(=O)[C@@H]2[C@@H](c3ccc(-c4ccc(C(C)=O)cc4)c(OC)c3)N3CCCC[C@@]3(C(=O)OC)[C@@H]2C1=O | inconclusive: 14% | –
49 | Cc1onc(-c2ccccc2)c1-c1ccnn1S(=O)(=O)c1ccc(Cl)cc1 | inconclusive: 16.8% | –
50 | COc1cc(CNCc2cccs2)ccc1OCc1cccs1 | inconclusive: 4.26% | –
51 | CC[C@@H](C)[C@H](NC(=O)Cc1c(C)c2cc3c(C)c(C)oc3c(C)c2oc1=O)C(=O)O | inconclusive: 12.9% | –
52 | COc1cccc(CCN2CCC(CNS(=O)(=O)c3cc(-c4cc(C)no4)ccc3OC)CC2)c1 | – | inconclusive: 0.13 µM [activator, full curve, poor fit]

Row | SMILES | lipid storage change, negative = inhibition | Potency
53 | CN(C)CCCNc1ccc(-c2n[nH]c(=O)c3ccccc23)cc1[N+](=O)[O-] | inconclusive: -32.8% | –
54 | CNc1ccccc1C(C)(C)c1cc(C)[nH]n1 | inconclusive: 10.1% | –
55 | COc1ccc(/C(N)=N/OC(=O)C2CCC(=O)N2S(=O)(=O)c2ccc(C)cc2)cc1 (configuration not stated) | – | inconclusive: 0.164 µM [rising, full curve, poor fit]
56 | COCCSc1nnc(NC(=O)c2cc(OC)c(OC)cc2[N+](=O)[O-])s1 | inconclusive: 130% | –
57 | CCn1c(-c2ccc(C)cc2)n[nH]c1=S | – | inconclusive: 7.31 µM [activator, partial curve]
58 | COc1cc(NS(=O)(=O)c2ccc(NC(=O)c3ccc(S(=O)(=O)N4CCCC4)cc3)cc2)ncn1 | – | inconclusive: 29.1 µM [cytotoxic, single point]
59 | Cc1cccc(NS(=O)(=O)c2ccc(C)c(C(=O)NCC(c3ccccc3)N(C)C)c2)c1 (configuration not stated) | – | inconclusive: 16.4 µM [activator, partial curve, poor fit]
60 | CC(COc1ccccc1)N(CCCl)Cc1ccccc1 (configuration not stated) | inconclusive: 0.005% | –
61 | O=S(=O)(c1ccccc1)N1CCN(Cc2ccc(Cl)cc2)CC1 | – | inconclusive: 29.1 µM [falling, single point]
62 | O=C(Cn1cnc2ccccc2c1=O)Nc1nc2ccccc2s1 | – | inconclusive: 3.26 µM [falling, partial curve, poor fit]
63 | Cc1cc(C(F)(F)F)n(-c2nc(C(=O)Nc3ccccc3Oc3ccccc3)cs2)n1 | inconclusive: 22.2% | –
64 | CN(Cc1nccn1C)C(=O)c1cc(COc2ccc3ncccc3c2)on1 | – | inconclusive: 20.6 µM [falling, single point]
65 | Cc1nnc(NC(=O)c2ccc3nccnc3c2)s1 | inconclusive | –
66 | CCCc1cc(C(=O)Nc2ccn(Cc3ccc(C)cc3)n2)no1 | inconclusive: 12.8% | –
67 | Cc1ccc(N2CCN(Cc3ccccc3)CC2=O)c(C)c1 | inconclusive: -1.15% | –
68 | CNc1ccc(C(=O)OCC(=O)Nc2ccnn2C(C)C)cc1[N+](=O)[O-] | inconclusive: 20% | –
69 | CC(=O)NC(c1cccs1)c1cc([N+](=O)[O-])c2cccnc2c1O (configuration not stated) | inconclusive: -13% | –
70 | CCOC(=O)N1CCN(C(=O)N2CCOCC2)CC1 | inconclusive: -23.9% | –
71 | O=C(Nc1ccc(S(=O)(=O)N2CCOCC2)cc1)c1ccc(CN2CCc3ccccc3C2)cc1 | inconclusive: -70.5% | –
72 | CC1(NC(=O)CCNC(=O)c2ccc(C(C)(C)C)cc2)CCS(=O)(=O)C1 (configuration not stated) | inconclusive: -12.8% | –
73 | Cc1ccc(C)c(NC(=O)CN(C)C(=O)c2cc3ccccc3o2)c1 | inconclusive: 36.2% | –
74 | O=S(=O)(Cc1ccccc1)Nc1ccc(F)cc1 | inconclusive: 50.9% | –
75 | CCc1cccc(NC(=O)Cn2c3[n+](c4ccc(C(F)(F)F)cc42)CCCCC3)c1 | inconclusive: 7.87% | –
76 | Cc1cccc2c1N1C(=O)c3c(C(=O)O)cccc3C1CC2C (configuration not stated) | inconclusive: 1.75% | –
77 | C/C(=N\Nc1ccccn1)c1cccs1 | inconclusive: 72.6% | –
